# Source: patent US20030082625A1, “Method for the pretreatment of a surface for the reduction of non-specific binding by chemical entities” (priority 2001, published 2003)
# At least one structure is not confirmed: it was looked up by name or label, or the drawing left a doubt.
# Assay: Non-specific binding (NSB) of drugs to ultrafiltration membrane filter, regenerated cellulose (Millipore Ultrafree-MC UFC 3LGC00, 10 k NMWL)
# Format: physicochemical
# Procedure: Various experiments were performed using the following reagents, surfactants and reservoirs (also comprising ultrafiltration units): human serum, pH 7.4 phosphate buffered saline (PBS), drug solution (i.e. compound) in serum at a concentration of 1-50 μM, and drug solution in PBS at a concentration of 1-50 μM were used as reagents. Surfactant solutions were 0.01-20% Tween 80 (polyoxyethylene 20 sorbitan monooleate) in PBS as neutral solution, 0.01-20% Benzalkonium chloride (BAK) in PBS as cationic solution, 0.01-20% Sodium lauryl sulfate (SLS) in PBS as anionic solution. An ultrafiltration reservoir (Millipore, Ultrafree-MC) comprising regenerated cellulose (UFC 3LGC00, 10 k NMWL) or polyethersulfone (UFC 3BSC00, 10 k NMWL) was used.
# The upper ultrafiltration cup was connected to the reservoir tube and 25 μL surfactant solution was added to each well. After bedewing for 5 min, the reservoir tube containing the ultrafiltration cup was centrifuged for 10 min at 3000 g and room temperature.
# 200 μL of PBS was added to each ultrafiltration cup and equilibrated for 30 min. Remaining PBS was removed from the ultrafiltration cup by gentle tapping the cup. The upper ultrafiltration cup was reconnected to a new reservoir tube, and 400 μL drug solution (1-50 μM) in serum or PBS was applied and equilibrated for 1 hr at room temperature.
# The ultrafiltration tube was centrifuged for 18 min at 3000 g at room temperature. 50 μL sample was taken from the receiver (filtrate) and donor (drug solution in serum or PBS) for bioanalysis. Non-specific binding was calculated as follows:
# NSB=(Cf1-Cf2)/Cf1, where NSB: non specific binding to membrane filter at pH 7.4 isotonic PBS, Cf1: free drug before filtration, and Cf2: free drug in the filtrate after filtration
structure (smiles),measurement,setting,value
Nc1[nH]c(=O)ncc1F [Fluorocytosine],NSB (%) Control,"no surfactant pretreatment, drug concentration 5 uM, pH 7.4 PBS",2%
same,NSB (%) Tween 80,"pretreatment with 0.5% Tween 80, drug concentration 5 uM",0%
same,NSB (%) BAK,"pretreatment with 0.5% benzalkonium chloride, drug concentration 5 uM",0%
